Data published in US20030148446A1.
Results are given in words; binding and its absence hold for the method and conditions named. Some entries that bind do so weakly or less than the wild type. Sequences can lack the tags named with a protein.

Legend:
[1] = molecular target: Gal4-ANIC-BP-1 fusion protein (bait encoded by pDBLeu-ANIC-BP-1); assay: yeast two-hybrid screen (Proquest, Gal4-based), bait pDBLeu-ANIC-BP-1; β-galactosidase filter assay and growth selection
[2] = molecular target: Gal4-ANIC-BP-1 fusion protein (bait encoded by pDBLeu-ANIC-BP-1); assay: yeast two-hybrid screen (Proquest, Gal4-based), bait pDBLeu-ANIC-BP-1; selection on -Trp, -Leu, -His medium with 25 mM 3-aminotriazole
[3] = molecular target: LexA-ANIC-BP-1 fusion protein (bait encoded by pLexA-MCS-ANIC-BP-1); assay: LexA-based yeast two-hybrid (Matchmaker, EGY48/pSH18-32), bait pLexA-MCS-ANIC-BP, prey pPC86-ANIC-BPligand; growth without leucine and blue colour on X-Gal

binding [1]: binds
binding [2]: binds
binding [3]: binds
B1: ANIC-BP-1 ligand (prey encoded by vector pPC86-ANIC-BPligand, Gal4-activation domain fusion) (ligand, not shown: large carriers)
chain: MGAVARAHGGLRVARARESVAGGRHRGAGRPGARAAGAAAGLVRAEAGGRRAGRGRRPGRGLPTGGGGLAAAAVGREVAQGLCDAIRLDGGLDLLLRLLQAPELETRVQAARLLEQILVAENRDRVARIGLGVILNLAKEREPVELARSGSGILEHMFKHSEETCQRLVAAGGLDAVLYWCRRTDPALLRHCALALGNCALHGGQAVQRRMVEKRAAEWLFPLAFSKEDELLSLHACLAVAVLATNKEVEREVERSGTLALVEPLVASLDPGRFARCLVDASDTSQGRGPDDLQRLVPLLDSNRLEAQCIGAFYLCAEAAIKSLQGKTKVFSDIGAIQSLKRLVSYSTNGTKSALAKRALRLLGEEVPRPILPSVPSWKEAEVQTWLQQIGFSKYCESFREQQVDGDLLLRLTEEELQTDLGMKSGITRKRFFRELTELKTFANYSTCDRSNLADWLGSLDPRFRQYTYGLVSCGLDRSLLHRVSEQQLLEDCGIHLGVHRARILTAAREMLHSPLPCTGGKPSGDTPDVFISYRRNSGSQLASLLKVHLQLHGFSVFIDVEKLEAGKFEDKLIQSVMGARNFVLVLSPGALDKCMQDHDCKDWVHKEIVTALSCGKNIVPIIDGFEWPEPQVLPEDMQAVLTFNGIKWSHEYQEATIEKIIRFLQGRSSRDSSAGSDTSLEGAAPMGPT
